Reference: PubChem BioAssay AID1508597 (Cure First, 2020)
This is a random part of the about 2,100 reagents, under one of the conditions tested. 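Calls flag viability under 80% in either arm, not effects specific to rucaparib; the reference for percent is not stated.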 A reagent listed more than once was tested more than once; the source does not tell the runs apart. Not stated in the record: the 100% reference.

- Screen: 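Genes whose silencing sensitises or protects ovarian cancer cells against rucaparib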 (primary screen)
- Cell system: human ovarian carcinoma lines grown from tumours: OCI-P5x (papillary serous) and OCI-C5x (clear cell)
- Knock-down reagent: siRNA pool against human genes, 1.25 pmol siRNA per well
- Duration: 72 h or 96 h, depending on the cell culture
- Challenge: rucaparib 20 µM (about IC30) or vehicle, present until read-out
- Rucaparib or vehicle: Rucaparib
- Cell line: OCI-P5x (serous)
- Read-out: 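ATP luminescence measured at 72 or 96 h according to the culture, then normalised and expressed as percent viability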
- Reading the numbers: viability, normalised: higher = more viable cells remaining
- Rule for the call: 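Active when normalised viability falls below 80 percent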
- Meaning of the calls: active = viability under 80%; inactive = viability 80% or more

The opening 2 records as a preview:
| Gene | technical replicate | viability, normalised (%) | Call |
| --- | --- | --- | --- |
| NME4 | 1 | 55.4 | active |
| NME4 | 1 | 69.6 | active |

The listing, from the first entry:
| Gene | technical replicate | viability, normalised (%) | Call |
| --- | --- | --- | --- |
| NME4 | 1 | 55.4 | active |
| NME4 | 1 | 69.6 | active |
| NME4 | 1 | 92.3 | inactive |
| NME4 | 2 | 67.9 | active |
| NME4 | 2 | 54.6 | active |
| NME4 | 2 | 81.6 | inactive |
| NME4 | 3 | 103 | inactive |
| NME4 | 3 | 51.4 | active |
| NME4 | 3 | 68.1 | active |
| IFNAR1 | 1 | 36.7 | active |
| IFNAR1 | 2 | 37.4 | active |
| IFNAR1 | 3 | 34.1 | active |
| ZCWPW2 | 1 | 43.6 | active |
| ZCWPW2 | 2 | 19.4 | active |
| ZCWPW2 | 3 | 43.9 | active |
| MAPK15 | 1 | 73.9 | active |
| MAPK15 | 2 | 76 | active |
| MAPK15 | 3 | 80.8 | inactive |
| SMC3 | 1 | 52.4 | active |
| SMC3 | 2 | 60.3 | active |
| SMC3 | 3 | 64.7 | active |
| TNRC6B | 1 | 64 | active |
| TNRC6B | 2 | 61.6 | active |
| TNRC6B | 3 | 58.3 | active |
